This passage reports z-score results from PubChem BioAssay AID1508600 (Functional Genomics Laboratory (NCATS/FGL), 2020).

Screen size: about 53,000 sequences; about 3,700 (7%) were called active.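 The calls were made as follows: active = gene knockdowns whose robust z-score for IL-1 alpha signal is at least 2 or at most -2, so actives lie on both sides; inactive = the rest.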 This is one part of the list.

A short description of this test: Components of the Cytosolic LPS Sensing Pathway: Gene Identification via Genome-wide siRNA Screen.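 Also: robust z of the log signal after scaling to non-targeting control siRNA wells of the plate.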 The conditions noted are these: RAW264.7 macrophages, IL-1a HTRF, actives lie on both sides, screened at 100 nM (by protocol), cells primed 5 h with Pam3CSK4 first. A digest of the protocol:
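Knockdown: 100 nM siRNA, 48h, RAW264.7. Stimulation: Pam3CSK4 5 h, then LipidA via TransIT-TKO 24 h. Output: supernatant IL-1a HTRF, negative-control-normalized, log robust z-score; viability by CellTiter-Glo.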
A general note: In TR-FRET formats the signal depends on donor and acceptor labels being close together.
As for GCUCAACACCUAUUCCGACTT against Matn3, the z-score was inactive: -0.715.

As for GGUUCAACAGAAGAGGUGGTT against Exosc2, the z-score was inactive: -1.23. Then CCUCCAAAAUGUGUCCACUTT against Krt10, with inactive: -0.753; and GCAAGAAUCAUCCGGUUACTT against Ttc39b, with inactive: 1.36.

As for GGGAUUAGUUCUAAGACAATT against Dio3, the z-score is inactive: 0.754. Then GGCGUACAGUCACUAUGAGTT against Crym, with inactive: -0.352.

As for GGGAGUGAAUGUUUCACAUTT against Tmem116, the z-score is inactive: -1.56. Then UGUUCUGGAAUAGAGUAACTT against Asphd2, with inactive: 0.303; and GGAGUUUACAGAAAUUAUCTT against Pecam1, with inactive: 0.214; and GCCAGAUCUGUUAACCGCCTT against Gzmk, with active: 2.15.

Consider GAAUAGAGUCAAUGGAUAUTT against Rnf212, for which the z-score was inactive: 0.835.

On to GGAGAUUAACCGCACUAUCTT against Snx19, for which the z-score was inactive: 1.12. Then GGGUUGAAUUCAGGUUCAATT against Rsad1, with inactive: -1.01; and GGGCUAUGUAUUGUAAAUGTT against Nxf1, with active: -2.79. Then GCCUACCACGAAGCACUUUTT against Cd38, with inactive: -0.233; and GCAGUUUAAGAGAAUAAGGTT against Apaf1, with inactive: -0.515; and GGGAUAGCAAGACUUUCACTT against C5ar1, with inactive: 0.194. Then GGAAUUUGUACCAUGUAUCTT against Tshz2, with inactive: -0.177; and GGCAGUGAGGUGUAUUGUUTT against Slc45a3, with inactive: -1.16.

With GGCUGAUAUGACCAACUUUTT against Thumpd3, the z-score was inactive: -0.58. Then GCUGUGUGGACAAAGUCUGTT against Clec4b1, with inactive: -0.398; and GGAGUUCUUCAUUUACCGATT against Fbxw21, with inactive: 0.688; and GCUCCGAAGUGUGAAGAUUTT against Kcnn1, with inactive: -1.39. Then GGAAAGGAAACCAAGUAAATT against Phf14, with inactive: -0.299; and GGGUAUCAUUGUGAUCUCUTT against Slc10a3, with inactive: -0.484; and CCAGAUGUCGGCAGAUAACTT against Pold4, with inactive: 0.446. Then CCUCUGAACCUGAAAAAGATT against Gm1968, with inactive: -0.605; and GCGAAUAAGUAACUUGGUUTT against Fam149a, with inactive: -1.01; and GAAGAAACUCAUGACAAAUTT against Cox7b2, with inactive: 1.92. As for CCUGAAUUCAGUCUGUUUUTT against Depdc1b, the z-score was inactive: -0.931. Then CGUAAACACUCCUAACUUUTT against Hif1a, with inactive: -0.543; and GGCCGGAAACUAAUCAGACTT against Mcm10, with inactive: 1.64. Then GGUAAUGUUCUCCUUUGAATT against Dok1, with active: 4.89; and GGCUAUACCUUUGACUAUGTT against Csnk1g1, with inactive: 0.0256. With GGAACUACUAGAAAAAGCATT against Plpbp, the z-score was inactive: -0.426. Then GGUCGAAAGAAGGCCUUUATT against Olfr131, with inactive: 0.634; and CCUGUCGUCUCUCACUAGATT against Zfp9, with inactive: -0.288; and GCAAGCUACAUGCAUACAUTT against Zfp945, with active: 3.59. Take CGACAACAUUUUCCUGUCATT against Serpinc1: the z-score was active: -2.07. Then CCGUAAACAACCUUAAGUUTT against Hagh, with inactive: 1.55; and CCGAAAUCUCUCAUCGAUCTT against Sowaha, with inactive: 0.178; and GGCCAUUGAUCAAGACAAGTT against Glyat, with inactive: 1.66. Then GGUGAUCACUAACAUGACATT against Smpdl3a, with inactive: 0.0438; and CCGUGCACAACAUUGCCUATT against Qtrt1, with inactive: -0.552; and GGCUGUGUAUUACUGUGCCTT against Vpreb1, with inactive: -0.352.

With GGUGUACGAACUUAGCCGGTT against Irf7, the z-score was inactive: 0.423. Then CCAUAAAUCAUGAACUGGUTT against Sesn3, with inactive: -1.41. Turning to CGUGCUACAGAUGCGUCAUTT against Exoc8, the z-score was inactive: 0.783. Take GGAAGGAAUUGGUUACCUATT against Cep72: the z-score was inactive: -0.2.

For the sequence CGUCCUAGGAAUCUACUUUTT against Itgad, the z-score is active: 2.63. As to GCCUGCUAUUUAAUUCAUATT against Fam168a, the z-score was inactive: -0.671. Then GGUGAUUCAGUUCAAAGUATT against Zrsr1, with inactive: 0.174; and GGAAAUCCUUUAUAUGUUGTT against Cyp2c70, with inactive: -0.918. Then GCUGCUGAGACGGUUACCUTT against Gtf3c3, with inactive: 0.764; and GGAGAGAUUAGCUCACAUGTT against Slc9a6, with inactive: -0.841; and GGAAAACAUGUCACAUAAATT against Cd47, with inactive: -0.519. Regarding GGAGGAGACCUUGAUUGAUTT against Cyp46a1, the z-score was inactive: -1.28. As for GGAAGAAAAAUACCAGAAATT against Ubxn6, the z-score is inactive: 0.305. Take GGCUGUCUUCUGAUCAAUUTT against Adamts3: the z-score was active: 2.42. Then GCAAGAAACGGGAACUAUUTT against Mettl7b, with inactive: 1.25. Regarding GGAUUAUGCAUAACCAUGATT against Pik3r1, the z-score is inactive: 0.96. Then GGACUCUAGUUCUUCGUUUTT against H1f2, with inactive: -0.798; and CCCGAAGUACCAAAAAGUUTT against Usp21, with inactive: -0.573. Then GCACUCGGAUCAAUGCACATT against Cenpt, with inactive: 0.183; and CCAUGAUUCUUCGCACUGUTT against Olfr67, with inactive: -0.427.

For the sequence GCACGAAUUAUGGCACCGUTT against P2rx7, the z-score is inactive: -0.597. GCUCUUAAGUACUUGGUCATT against Ddx47: the z-score was inactive: -1.01. As for GGACUAUGUAGUGAAACAUTT against Pdia4, the z-score was inactive: -1.55. Then GCUGGUUAGACCCUUCCAATT against Hnf4g, with active: 3.56; and GGUCAUGAAAAAUGACAGCTT against Klra2, with inactive: 0.126. For the sequence GGGAGGUACUCAAGGUUCATT against Tfe3, the z-score is inactive: 0.159. Then GGGAUGCGUUUGACUGGUGTT against Zfp455, with inactive: 0.443; and GGUGUUCUUCCUCUAUGAGTT against Chst2, with inactive: -1.52; and CCUCUUUAUCGGUGUUAUUTT against Scn11a, with inactive: 1.03. Regarding GGACAUGAACAGAGAAGUGTT against Zpr1, the z-score is inactive: -0.207. Then GCUUAAUCCUUAGUCAGCATT against F2rl2, with inactive: -0.591; and GGGAUCUUUGAGGAGUCUUTT against Snx12, with inactive: -0.0659; and GGUCAAAGGAAAAAGAAAATT against Stag1, with inactive: -0.836. Then GCUUAUAACAGUUGAUGAGTT against Ndufs4, with inactive: -0.54. Then GCCAAGAUCCAGGUGUGGUTT against Sebox, with inactive: 0.192; and GGAUUUGGAGCAGGUGGAUTT against Avpr1b, with inactive: -0.97; and CCAUCAAACGGAUCCAGCATT against Mex3d, with inactive: -1.15. GGCAUCCUGAGAGAACUCATT against Insyn1: the z-score was active: -2.27. Then GGAUACAAAUCCAGAUUCUTT against Pex26, with inactive: -0.982. Then GGGUGAGAAAAUUCACGAGTT against Tubg2, with inactive: 0.536; and GGUUUCUGACCUCAAUAGUTT against Cmtm6, with inactive: 1.62; and GCGGGUGCUUUCUUGUUGUTT against Ackr1, with inactive: 0.0775. Then GCAUCUGUGCCGAUUAAAATT against Asb15, with inactive: 1.32; and GGACAAAAUUAAGGAUUGCTT against Foxg1, with inactive: 1.42; and UCAGGUGAAGAUAAGGACATT against Olfr198, with inactive: 0.53.
